In test [1] the target is T1, interferon (IFN)-induced protein 44 (IFI44) fused to a hemagglutinin (HA) epitope tag (human) (UniProt Q8TCB0).
T1 sequence: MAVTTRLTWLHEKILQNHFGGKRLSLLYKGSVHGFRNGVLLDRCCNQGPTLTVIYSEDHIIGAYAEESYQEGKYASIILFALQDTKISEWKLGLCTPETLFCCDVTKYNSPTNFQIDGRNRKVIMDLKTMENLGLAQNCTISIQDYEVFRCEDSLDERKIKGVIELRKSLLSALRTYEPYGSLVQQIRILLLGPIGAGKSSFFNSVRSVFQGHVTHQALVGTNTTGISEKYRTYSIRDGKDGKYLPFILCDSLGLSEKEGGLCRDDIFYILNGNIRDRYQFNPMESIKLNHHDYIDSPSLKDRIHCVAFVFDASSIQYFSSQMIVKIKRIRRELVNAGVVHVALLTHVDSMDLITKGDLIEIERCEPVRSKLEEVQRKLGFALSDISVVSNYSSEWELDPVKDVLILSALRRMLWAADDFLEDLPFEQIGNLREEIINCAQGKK
Nature of the test: co-IP; 293T cells cotransfected 30 h; cleared lysates in Co-IP buffer incubated overnight at 4°C with anti-HA affinity resin (pulls down IFI44-HA); three washes in TBS with 0.1% Tween 20; Western blot with anti-tag antibodies.

Test [2] concerns the target T1, interferon (IFN)-induced protein 44 (IFI44) fused to a hemagglutinin (HA) epitope tag (human). As to the kind of experiment: co-IP.
The target of test [3] is T2, FK506-binding protein 5 (FKBP5) fused to a FLAG epitope tag (human) (UniProt Q13451).
T2 sequence: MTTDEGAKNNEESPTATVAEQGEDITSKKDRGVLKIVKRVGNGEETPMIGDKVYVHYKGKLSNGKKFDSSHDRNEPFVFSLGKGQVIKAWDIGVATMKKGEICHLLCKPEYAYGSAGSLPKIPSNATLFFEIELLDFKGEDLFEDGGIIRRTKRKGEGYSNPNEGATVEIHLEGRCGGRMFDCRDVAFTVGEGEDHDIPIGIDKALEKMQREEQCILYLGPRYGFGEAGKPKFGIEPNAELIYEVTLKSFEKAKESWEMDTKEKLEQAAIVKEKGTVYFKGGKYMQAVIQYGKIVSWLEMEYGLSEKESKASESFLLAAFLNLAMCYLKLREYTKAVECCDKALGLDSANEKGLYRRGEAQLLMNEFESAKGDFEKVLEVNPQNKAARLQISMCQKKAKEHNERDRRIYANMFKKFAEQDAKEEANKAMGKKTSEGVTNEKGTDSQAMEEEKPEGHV
Nature of the test: co-IP; 293T cells cotransfected 30 h; cleared lysates in Co-IP buffer incubated overnight at 4°C with anti-FLAG affinity resin (pulls down FKBP5-FLAG); three washes in TBS with 0.1% SDS; Western blot with anti-tag antibodies; for IKKβ and IKKε in the presence or absence of IFI44-HA.

Results are given in words; binding and its absence hold for the method and conditions named. In cells and extracts the contact can be indirect. Some entries that bind do so weakly or less than the wild type. Tags and fused reporters may be left off the sequences shown.

B1: FK506-binding protein 5 (FKBP5) fused to a FLAG epitope tag (protein, UniProt Q13451-1 1-457)
chain: MTTDEGAKNNEESPTATVAEQGEDITSKKDRGVLKIVKRVGNGEETPMIGDKVYVHYKGKLSNGKKFDSSHDRNEPFVFSLGKGQVIKAWDIGVATMKKGEICHLLCKPEYAYGSAGSLPKIPSNATLFFEIELLDFKGEDLFEDGGIIRRTKRKGEGYSNPNEGATVEIHLEGRCGGRMFDCRDVAFTVGEGEDHDIPIGIDKALEKMQREEQCILYLGPRYGFGEAGKPKFGIEPNAELIYEVTLKSFEKAKESWEMDTKEKLEQAAIVKEKGTVYFKGGKYMQAVIQYGKIVSWLEMEYGLSEKESKASESFLLAAFLNLAMCYLKLREYTKAVECCDKALGLDSANEKGLYRRGEAQLLMNEFESAKGDFEKVLEVNPQNKAARLQISMCQKKAKEHNERDRRIYANMFKKFAEQDAKEEANKAMGKKTSEGVTNEKGTDSQAMEEEKPEGHV
In the case of B1, the binding entry in test [1] and in test [2] was “binds” each time.

B2: IKKβ fused to a MYC epitope tag (enzyme, UniProt O14920-1 1-756)
chain: MSWSPSLTTQTCGAWEMKERLGTGGFGNVIRWHNQETGEQIAIKQCRQELSPRNRERWCLEIQIMRRLTHPNVVAARDVPEGMQNLAPNDLPLLAMEYCQGGDLRKYLNQFENCCGLREGAILTLLSDIASALRYLHENRIIHRDLKPENIVLQQGEQRLIHKIIDLGYAKELDQGSLCTSFVGTLQYLAPELLEQQKYTVTVDYWSFGTLAFECITGFRPFLPNWQPVQWHSKVRQKSEVDIVVSEDLNGTVKFSSSLPYPNNLNSVLAERLEKWLQLMLMWHPRQRGTDPTYGPNGCFKALDDILNLKLVHILNMVTGTIHTYPVTEDESLQSLKARIQQDTGIPEEDQELLQEAGLALIPDKPATQCISDGKLNEGHTLDMDLVFLFDNSKITYETQISPRPQPESVSCILQEPKRNLAFFQLRKVWGQVWHSIQTLKEDCNRLQQGQRAAMMNLLRNNSCLSKMKNSMASMSQQLKAKLDFFKTSIQIDLEKYSEQTEFGITSDKLLLAWREMEQAVELCGRENEVKLLVERMMALQTDIVDLQRSPMGRKQGGTLDDLEEQARELYRRLREKPRDQRTEGDSQEMVRLLLQAIQSFEKKVRVIYTQLSKTVVCKQKALELLPKVEEVVSLMNEDEKTVVRLQEKRQKELWNLLKIACSKVRGPVSGSPDSMNASRLSQPGQLMSQPSTASNSLPEPAKKSEELVAEAHNLCTLLENAIQDTVREQDQSFTALDWSWLQTEEEEHSCLEQAS
With B2, the binding result in test [3] is given as “binds”.

B3: IKKε fused to a MYC epitope tag (enzyme, UniProt Q14164-1 1-716)
chain: MQSTANYLWHTDDLLGQGATASVYKARNKKSGELVAVKVFNTTSYLRPREVQVREFEVLRKLNHQNIVKLFAVEETGGSRQKVLVMEYCSSGSLLSVLESPENAFGLPEDEFLVVLRCVVAGMNHLRENGIVHRDIKPGNIMRLVGEEGQSIYKLTDFGAARELDDDEKFVSVYGTEEYLHPDMYERAVLRKPQQKAFGVTVDLWSIGVTLYHAATGSLPFIPFGGPRRNKEIMYRITTEKPAGAIAGAQRRENGPLEWSYTLPITCQLSLGLQSQLVPILANILEVEQAKCWGFDQFFAETSDILQRVVVHVFSLSQAVLHHIYIHAHNTIAIFQEAVHKQTSVAPRHQEYLFEGHLCVLEPSVSAQHIAHTTASSPLTLFSTAIPKGLAFRDPALDVPKFVPKVDLQADYNTAKGVLGAGYQALRLARALLDGQELMFRGLHWVMEVLQATCRRTLEVARTSLLYLSSSLGTERFSSVAGTPEIQELKAAAELRSRLRTLAEVLSRCSQNITETQESLSSLNRELVKSRDQVHEDRSIQQIQCCLDKMNFIYKQFKKSRMRPGLGYNEEQIHKLDKVNFSHLAKRLLQVFQEECVQKYQASLVTHGKRMRVVHETRNHLRLVGCSVAACNTEAQGVQESLSKLLEELSHQLLQDRAKGAQASPPPIAPYPSPTRKDLLLHMQELCEGMKLLASDLLDNNRIIERLNRVPAPPDV
Regarding B3, the binding result in test [3] is on record as “binds”.

B4: interferon (IFN)-induced protein 44 (IFI44) fused to a hemagglutinin (HA) epitope tag (protein, UniProt Q8TCB0-1 1-444)
chain: MAVTTRLTWLHEKILQNHFGGKRLSLLYKGSVHGFRNGVLLDRCCNQGPTLTVIYSEDHIIGAYAEESYQEGKYASIILFALQDTKISEWKLGLCTPETLFCCDVTKYNSPTNFQIDGRNRKVIMDLKTMENLGLAQNCTISIQDYEVFRCEDSLDERKIKGVIELRKSLLSALRTYEPYGSLVQQIRILLLGPIGAGKSSFFNSVRSVFQGHVTHQALVGTNTTGISEKYRTYSIRDGKDGKYLPFILCDSLGLSEKEGGLCRDDIFYILNGNIRDRYQFNPMESIKLNHHDYIDSPSLKDRIHCVAFVFDASSIQYFSSQMIVKIKRIRRELVNAGVVHVALLTHVDSMDLITKGDLIEIERCEPVRSKLEEVQRKLGFALSDISVVSNYSSEWELDPVKDVLILSALRRMLWAADDFLEDLPFEQIGNLREEIINCAQGKK
For B4, the binding result in test [3] was “binds”.

For the origin of these results see publication PMC6712396.
